Reference: PubChem BioAssay AID504774 (Drosophila RNAi Screening Center, 2011)
The screen tested about 23,000 reagents; shown is an unselected part of those that have a named target and a result. 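Values are quantile-normalised luminescence on an arbitrary scale; higher means more cells surviving MMS.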 A plus sign joins genes that one reagent is predicted to hit. Not all columns of the deposit are shown.

Screen: 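Genes required for cells to withstand methyl methanesulphonate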 (primary screen)
Cell system: Drosophila Kc167 cells
Reagent: long dsRNA against Drosophila genes, about 0.25 µg dsRNA per well
Duration: about 6 days: 3 days knock-down, then 3 days with or without MMS
Conditions: methyl methanesulphonate 0.004% (w/v) for 3 days after knock-down
Detection: 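Viability in wells given MMS, read as ATP luminescence, normalised by quantiles plate by plate and averaged across replicates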
Scale: mean viability with MMS: higher = more surviving cells after MMS

Target gene | PubChem SID | mean viability with MMS
CG17721 | SID104195045 | 3.56e6
CG30492 (retired record) + M7BP | SID104184845 | 3.55e6
CG30492 (retired record) + M7BP | SID104184846 | 3.60e6
CG30492 (retired record) + M7BP | SID104184847 | 3.71e6
CG30492 (retired record) + M7BP | SID104186493 | 3.55e6
CG30492 (retired record) + M7BP | SID104186608 | 3.54e6
TTLL4B | SID104180428 | 3.27e6
Thor | SID104180562 | 3.78e6
moi + Tgs1 | SID104196163 | 3.42e6
ODA-Dnal1 | SID104187062 | 3.60e6
dock | SID104180604 | 3.47e6
GNBP1 | SID104190961 | 3.58e6
GNBP1 | SID104201484 | 3.34e6
Mst85C | SID104196538 | 3.40e6
CG30324 | SID104202055 | 3.54e6
CG13631 | SID104194424 | 3.65e6
CG13631 | SID104202525 | 3.45e6
CG11694 | SID104194146 | 3.34e6
Mcm10 | SID104182954 | 3.66e6
CG15549 | SID104194879 | 3.61e6
CG4597 | SID104190224 | 3.45e6
CG14341 | SID104180163 | 3.57e6
mop | SID104190857 | 3.50e6
CG16854 | SID104182328 | 3.66e6
fray | SID104196742 | 3.27e6
BEAF-32 + CG42254 (retired record) | SID104185295 | 3.78e6
CG17190 | SID104194976 | 3.58e6
CG3038 | SID104198410 | 3.51e6
GstT1 | SID104186035 | 3.59e6
CG17564 | SID104182418 | 3.59e6
CG12011 | SID104188011 | 3.61e6
CG13311 | SID104189774 | 3.50e6
CG18171 | SID104188316 | 3.54e6
Mos | SID104187050 | 3.46e6
Obp59a | SID104183952 | 3.52e6
S-Lap4 | SID104190749 | 3.46e6
trk | SID104183417 | 3.61e6
rhi | SID104185788 | 3.41e6

Entries above whose target name starts with M or m:
Target gene | PubChem SID | mean viability with MMS
moi + Tgs1 | SID104196163 | 3.42e6
Mst85C | SID104196538 | 3.40e6
Mcm10 | SID104182954 | 3.66e6
mop | SID104190857 | 3.50e6
Mos | SID104187050 | 3.46e6

The list goes on:
Target gene | PubChem SID | mean viability with MMS
arx | SID104190178 | 3.55e6
CG3124 | SID104184131 | 2.80e6
CG3124 | SID104202419 | 3.55e6
AlaRS-m | SID104189452 | 3.56e6
cry | SID104196720 | 3.44e6
pes | SID104182825 | 3.67e6
z | SID104198647 | 3.03e6
z | SID104202491 | 3.41e6
Golgin245 | SID104184166 | 3.93e6
Golgin245 | SID104201600 | 3.64e6
Hsp60D | SID104182335 | 3.63e6
CG15912 | SID104197897 | 3.46e6
Or7a | SID104198483 | 3.57e6
morgue | SID104180056 | 3.51e6
lmgA + lmgB | SID104183358 | 3.38e6
Dna2 | SID104198046 | 3.50e6
NfI | SID104196950 | 3.56e6
CG7523 | SID104196046 | 3.63e6
Cyp6a21 | SID104187173 | 3.67e6
CG5612 | SID104195636 | 3.41e6
Tig | SID104183248 | 3.29e6
Pus10 | SID104180421 | 3.42e6
CG16995 | SID104180272 | 3.61e6
CG12432 (retired record) | SID104199247 | 3.56e6
CG15539 | SID104194867 | 3.47e6
Ir41a | SID104184522 | 3.50e6
Ir41a | SID104184667 | 3.74e6
Mlc1 | SID104196532 | 3.59e6
Jheh2 | SID104186322 | 3.48e6
RpS8 | SID104196110 | 2.84e6
